The target of this assay is T1, DCP1b (human (endogenous in A549)) (UniProt Q8IZD4).
T1 sequence: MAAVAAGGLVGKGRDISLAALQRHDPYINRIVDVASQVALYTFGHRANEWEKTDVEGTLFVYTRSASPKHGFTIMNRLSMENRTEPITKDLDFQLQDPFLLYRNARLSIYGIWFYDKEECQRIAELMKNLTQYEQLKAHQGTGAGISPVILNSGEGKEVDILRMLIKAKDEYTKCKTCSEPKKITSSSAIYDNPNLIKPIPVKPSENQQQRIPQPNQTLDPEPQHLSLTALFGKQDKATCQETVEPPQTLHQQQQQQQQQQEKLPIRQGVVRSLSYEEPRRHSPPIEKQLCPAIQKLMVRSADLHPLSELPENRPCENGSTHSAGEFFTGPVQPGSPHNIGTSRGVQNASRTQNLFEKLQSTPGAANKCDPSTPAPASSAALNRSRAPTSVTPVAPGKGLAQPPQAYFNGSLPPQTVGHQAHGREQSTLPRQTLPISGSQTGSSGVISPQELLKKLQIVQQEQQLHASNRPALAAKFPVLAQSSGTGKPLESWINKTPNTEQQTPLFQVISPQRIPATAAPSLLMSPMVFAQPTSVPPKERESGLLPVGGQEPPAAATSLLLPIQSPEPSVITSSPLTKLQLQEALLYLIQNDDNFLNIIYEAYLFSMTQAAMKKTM
Nature of the assay: proximity ligation.

No constants are given. Whether binding was seen depends on the method and setting. In cells and extracts the contact can be indirect. Some binding calls cover weakened binding; strength is not graded here.

B1: Ubiquitin C-terminal hydrolase L3 (UCHL3), endogenous (enzyme, UniProt P15374 1-230)
chain: MEGQRWLPLEANPEVTNQFLKQLGLHPNWQFVDVYGMDPELLSMVPRPVCAVLLLFPITEKYEVFRTEEEEKIKSQGQDVTSSVYFMKQTISNACGTIGLIHAIANNKDKMHFESGSTLKKFLEESVSMSPEERARYLENYDAIRVTHETSAHEGQTEAPSIDEKVDLHFIALVHVDGHLYELDGRKPFPINHGETSDETLLEDAIEVCKKFMERDPDELRFNAIALSAA
Consider B1, for which the binding result is “binds”.

The values above are taken from publication PMC13336449.
